These are yes or no findings as the source states them, for the method shown. Binding seen in cells or lysates may run through a third protein. Some binding calls cover weakened binding; strength is not graded here. Where a sequence is shown, tags or fusion partners need not be part of it.
T1: Fatty Acid Export Protein1 fused to nYFP (FAX1:YFP^C-n) (Arabidopsis thaliana) (UniProt Q93V66)
T1 sequence: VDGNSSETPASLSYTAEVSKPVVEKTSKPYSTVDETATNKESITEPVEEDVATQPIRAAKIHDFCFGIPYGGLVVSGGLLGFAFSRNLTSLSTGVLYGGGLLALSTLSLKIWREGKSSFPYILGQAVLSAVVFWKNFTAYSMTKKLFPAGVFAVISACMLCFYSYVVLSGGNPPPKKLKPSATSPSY

T2: Rhomboid-like protease11 fused to cYFP (RBL11:YFP^C-c) (Arabidopsis thaliana) (UniProt Q84MB5)
T2 sequence: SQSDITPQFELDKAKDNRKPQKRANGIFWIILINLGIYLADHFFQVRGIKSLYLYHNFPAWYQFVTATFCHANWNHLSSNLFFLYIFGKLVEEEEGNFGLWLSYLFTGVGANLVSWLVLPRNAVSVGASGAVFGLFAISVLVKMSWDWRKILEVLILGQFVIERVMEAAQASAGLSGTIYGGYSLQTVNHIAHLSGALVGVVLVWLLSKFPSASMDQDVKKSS


What was measured:
[1] = target: T1, Fatty Acid Export Protein1 fused to nYFP (FAX1:YFP^C-n) (Arabidopsis thaliana); test: split reporter
[2] = target: T2, Rhomboid-like protease11 fused to cYFP (RBL11:YFP^C-c) (Arabidopsis thaliana); test: split reporter

Row | Binder | binding [1] | binding [2]
1 | Rhomboid-like protease11 fused to cYFP (RBL11:YFP^C-c) (enzyme, UniProt Q84MB5 58-280) SQSDITPQFELDKAKDNRKPQKRANGIFWIILINLGIYLADHFFQVRGIKSLYLYHNFPAWYQFVTATFCHANWNHLSSNLFFLYIFGKLVEEEEGNFGLWLSYLFTGVGANLVSWLVLPRNAVSVGASGAVFGLFAISVLVKMSWDWRKILEVLILGQFVIERVMEAAQASAGLSGTIYGGYSLQTVNHIAHLSGALVGVVLVWLLSKFPSASMDQDVKKSS | binds | –
2 | FtsH11 protease fused to cYFP (FTSH11:YFP^C-c) (enzyme, UniProt Q9FGM0 64-806) QDNVASDSDFIPKDSAFEVTDSAESNRLVSDTEVSELETNDRFVGGEETKSGGEEAEVSNGVTEGKEEDQKKSKFRIVVLMMALWAAIKRAIEKVMEWEWLSWWPFSRQEKRLEKLIAEADANPKDAALQGALLAELNKHIPEAVVQRFEQREHTVDSRGVAEYIRALVITNAISEYLPDEQTGKPSSLPALLQELKHRASGNMDESFVNPGISEKQPLHVTMVNPKVSNKSRFAQELVSTILFTVAVGLVWIMGAAALQKYIGSLGGIGTSGVGSSSSYSPKELNKEITPEKNVKTFKDVKGCDDAKQELEEVVEYLKNPSKFTRLGGKLPKGILLTGAPGTGKTLLAKAIAGEAGVPFFYRAGSEFEEMFVGVGARRVRSLFQAAKKKAPCIIFIDEIDAVGSTRKQWEGHTKKTLHQLLVEMDGFEQNEGIIVMAATNLPDILDPALTRPGRFDRHIVVPSPDVRGREEILELYLQGKPMSEDVDVKAIARGTPGFNGADLANLVNIAAIKAAVEGAEKLSSEQLEFAKDRIVMGTERKTMFVSEDSKKLTAYHESGHAIVALNTKGAHPIHKATIMPRGSALGMVTQLPSNDETSVSKRQLLARLDVCMGGRVAEELIFGLDHITTGASSDLSQATELAQYMVSSCGMSEAIGPVHIKERPSSDMQSRIDAEVVKLLREAYERVKSLLKRHEKQLHTLANALLEYETLTAEDIKRILLPKQEGEKFEEQQQEEGDLVLA | no binding | –
3 | FtsH11 protease fused to nYFP (FTSH11:YFP^C-n) (enzyme, UniProt Q9FGM0 64-806) QDNVASDSDFIPKDSAFEVTDSAESNRLVSDTEVSELETNDRFVGGEETKSGGEEAEVSNGVTEGKEEDQKKSKFRIVVLMMALWAAIKRAIEKVMEWEWLSWWPFSRQEKRLEKLIAEADANPKDAALQGALLAELNKHIPEAVVQRFEQREHTVDSRGVAEYIRALVITNAISEYLPDEQTGKPSSLPALLQELKHRASGNMDESFVNPGISEKQPLHVTMVNPKVSNKSRFAQELVSTILFTVAVGLVWIMGAAALQKYIGSLGGIGTSGVGSSSSYSPKELNKEITPEKNVKTFKDVKGCDDAKQELEEVVEYLKNPSKFTRLGGKLPKGILLTGAPGTGKTLLAKAIAGEAGVPFFYRAGSEFEEMFVGVGARRVRSLFQAAKKKAPCIIFIDEIDAVGSTRKQWEGHTKKTLHQLLVEMDGFEQNEGIIVMAATNLPDILDPALTRPGRFDRHIVVPSPDVRGREEILELYLQGKPMSEDVDVKAIARGTPGFNGADLANLVNIAAIKAAVEGAEKLSSEQLEFAKDRIVMGTERKTMFVSEDSKKLTAYHESGHAIVALNTKGAHPIHKATIMPRGSALGMVTQLPSNDETSVSKRQLLARLDVCMGGRVAEELIFGLDHITTGASSDLSQATELAQYMVSSCGMSEAIGPVHIKERPSSDMQSRIDAEVVKLLREAYERVKSLLKRHEKQLHTLANALLEYETLTAEDIKRILLPKQEGEKFEEQQQEEGDLVLA | – | no binding
